The assay can be described thus: qHTS Assay to Find Inhibitors of Chronic Active B-Cell Receptor Signaling. The note with it: ABC-DLBCL IkBa-CBG/CBR reporter, luminescence ratio (green luciferase fused to IkBa over red control in TMD8 lymphoma cells), 4 h. The procedure, abridged:
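TMD8 human ABC-DLBCL cells with doxycycline-inducible IκBα–green luciferase fusion and unfused red luciferase, in 0.5% FBS medium; compounds up to 46 uM, 4 h at 37C. Green/red luminescence ratio, filter-overlap corrected, fitted to concentration-response curves.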
(qHTS replaces the single test concentration by a dilution series.)

[1] abbreviates: measured here: CBR red luminescence, cell number.

The term AC50 denotes the midpoint of the concentration-response curve, whichever way the signal moves.

Structures are written as SMILES. The list shows a part of the results. Further columns of the screen follow, without active or inactive calls. Most of these compounds were active or inconclusive in the main read-out, so they are no random draw. The note in brackets gives the kind of curve behind each potency; many fits are weak.

Turning to `COC(=O)Cn1c(=O)c2c(nc3n2CCCN3CCc2ccccc2)n(C)c1=O`, the concentration at half-maximal activity (AC50) under setting [1] is 3.98 µM [falling, full curve]. Still for that read-out and setting: then `Cc1ccccc1-c1ocnc1C(=O)Nc1ccccc1NC(=O)c1ccccn1`, with 22.4 µM [falling, single point]; and `COc1ccccc1OCCCCn1ncc2ccc(OC)c(OC)c2c1=O`, with 6.31 µM [rising, partial curve, poor fit]; and `CC(=C/c1ccccc1)/C=N/n1cnnc1`, with 12.6 µM [rising, partial curve, poor fit].

As to `CN(C)C(=O)CCc1ccc2c3c([nH]c2c1)[C@]1(C)[C@@H](C(=O)N2CCCCC2)C[C@H](CC(=O)NCCCn2ccnc2)C(=O)N1CC3`, the AC50 under setting [1] was 9.2 µM [rising, partial curve, poor fit].

On to `O=C(CCC(=O)c1ccc(F)cc1)Nc1ccccc1Cl`, for which, under setting [1], the AC50 is 8.2 µM [falling, partial curve]. On the same count and under the same terms, under `Cc1ccc(-n2cnc3cc(C(=O)NCc4ccccc4Cl)ccc32)c(C)c1` stands 3.98 µM [falling, partial curve, poor fit]; under `C=CCOc1ccc(C2NC(=O)NC(C)=C2C(=O)OC)cc1` (stereo not drawn), 0.461 µM [falling, partial curve, poor fit]; under `CCOC(=O)c1c(NC(=O)CN2C(=O)NC3(CCCCC3C)C2=O)sc(C(=O)N(C)C)c1C` (stereo not drawn), 1.3 µM [rising, full curve, poor fit]. For the compound `O=C(/C=C/c1ccccc1[N+](=O)[O-])Nc1ccccc1`, the concentration at half-maximal activity (AC50) under setting [1] was 35.5 µM [falling, single point].

Take `CCC(=O)N/C=C/n1cnc2cc(C(F)(F)F)ccc21`: the AC50 under setting [1] is 8.91 µM [rising, partial curve, poor fit]. On the same count and under the same terms, then `CCn1nnc(NC(=O)c2ccc(-c3ccc(Cl)cc3)o2)n1`, with 29.1 µM [falling, single point].

As to `O=C(COC(=O)c1n[nH]c2ccccc12)Nc1ccccc1`, the AC50 under setting [1] was 22.4 µM [falling, single point]. Consider `C=CCn1c(C)cc(C(=O)CSc2nnc3c(Cl)cc(Cl)cn23)c1C`, for which the AC50 under setting [1] is 0.0184 µM [falling, full curve, poor fit]. Still for that read-out and setting: under `O=S1(=O)CCC(n2nccc2-c2ccccc2)C1` (stereo not drawn) stands 35.5 µM [rising, partial curve, poor fit]; under `Cc1ccc(NC(=O)N/C=C/c2ccco2)cc1`, 29.1 µM [falling, single point].

As to `Cc1cc(C(=O)N/N=C/c2ccc(C)o2)c2ccccc2n1`, the AC50 runs as follows: under setting [1], 29.1 µM [rising, single point]; (measured here: IkBa-CBG green luminescence) 16.4 µM [falling, single point].

(Values after PubChem BioAssay AID493014 (National Center for Advancing Translational Sciences (NCATS), 2011).)
